Data reported in PubChem BioAssay AID1471 (National Center for Advancing Translational Sciences (NCATS), 2008).
Where “and” joins values, the source holds several entries; their conditions need not be identical. Identical values can stand only once. The campaign covered roughly 230,000 compounds. About 310 (0.13%) were called active. This list was built around the results that the source calls inconclusive (neither active nor inactive); the mix of calls is not that of the screen. The call rests on the fitted dose curve; in most records, active means well fitted activation curve with a large enough effect; inconclusive means small, poorly fitted or top-dose-only effect; inactive means no such curve, though single readings can be large or run the other way. Potencies beside an inconclusive call are fits to weak or partial responses and may not hold up.

test: qHTS Multiplex Assay to Identify Dual Action Probes in a Cell Model of Huntington: Cytoprotection (ATP); details: PC12 HTT-Q103 induced, ATP luminescence, 40 h; cytoprotection (ATP increase): at 56.4 µM (top of the series) unless noted; further: nearly all actives have a fitted effect of over 45% in size;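 on cytoprotection (ATP increase): toxic huntingtin expression switched on by the ecdysone agonist tebufenozide; % of control where 0% means no effect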
Outline: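 Stable PC12 Q103-GFP cells in serum-supplemented, phenol red-free DMEM; induction by tebufenozide at 100 nM final; compound dose series; cell viability quantified luminescently from ATP.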
Potency means the concentration at half of the fitted maximal effect.

Row | Structure (SMILES) | cytoprotection (ATP increase) | Potency
1 | COc1cc(C)cc2c(-c3c(O)cc(O)c4c3C[C@H](C)N[C@@H]4C)cc(-c3cc(-c4c(O)cc(O)c5c4C[C@H](C)N[C@@H]5C)c4cc(C)cc(OC)c4c3O)c(O)c12 | inactive: 7.47% [at 10 µM] | –
2 | CC1CCCC(C)N1/N=C/c1ccccc1OC(F)F (stereo not given) | – | inconclusive: 1.26 µM [activator, single point]
3 | C[C@@H]1CCC[C@H](C)N1Cc1nc(Cc2ccccc2Cl)no1 | – | inconclusive: 0.631 µM [activator, single point]
4 | CCOC(=O)OCC1C=C[C@H](c2cc(-c3ccccc3)ccc2O)C(c2ccc(C(C)=O)cc2)O1 (stereo not given in full) | – | inconclusive: 0.199 µM [activator, full curve, poor fit]
5 | COc1ncc2nc(CCc3ccccc3)c(=O)n(Cc3cccs3)c2n1 | – | inconclusive: 1.78 µM [activator, partial curve]
6 | CCOC(=O)Cc1csc(NC(=O)CCS(=O)(=O)Cc2ccccc2)n1 | inactive: 8.47% | –
7 | c1ccc(C2c3[nH]c4ccccc4c3CCN2Cc2cccn2-c2ccccn2)nc1 (stereo not given) | inactive: -14.1% [at 10 µM] | –
8 | Cc1ccc(-c2nc(CN3CCCCC3CCN3CCCC3=O)c(C)o2)o1 (stereo not given) | – | active: 3.98 µM
9 | CCCCn1cnc2c1c(=O)[nH]c(=O)n2CCCC | – | inconclusive: 0.251 µM [activator, full curve, poor fit]
10 | CCCC(=O)Nc1ccc2c(c1)nc1n2CCSC1 | – | inconclusive: 1 µM [activator, partial curve]
11 | COc1ccc(OC)c(C2C=C(C34CC5CC(CC(C5)C3)C4)NC(=S)N2)c1 (stereo not given) | inactive: 26.9% [at 10 µM] | –
12 | COCCCNC(=O)CCn1c(=O)c2ccccc2n(Cc2cccc([N+](=O)[O-])c2)c1=O | – | inconclusive: 31.6 µM [activator, single point]
13 | CCC(C)NS(=O)(=O)c1ccc(S(=O)(=O)Nc2cc3c(cc2C(C)=O)OCO3)cc1 (stereo not given) | – | inconclusive: 39.8 µM [activator, single point]
14 | COc1cccc(N2C(=O)CC(N3CCN(CCN=CC4=C(O)CC(C)(C)CC4=O)CC3)C2=O)c1 (stereo not given) | inactive: 3.85% [at 10 µM] | –
15 | Cc1ccc(C(=O)NC(=C(Cl)Cl)S(=O)(=O)c2ccc(Cl)cc2)cc1 | – | inconclusive: 35.5 µM [activator, single point]
16 | S=c1nc[nH]c2c1ncn2Cc1ccco1 | inactive: 2.49% [at 10 µM] | –
17 | Cc1[nH]nc2c1C(c1cccs1)C(C#N)=C(N)O2 (stereo not given) | – | inconclusive: 1.26 µM [activator, single point]
18 | NCCCCC(N)C(=O)O (stereo not given) | – | inconclusive: 35.5 µM [activator, single point]
19 | COC(=O)C1=C(C)[C@H](O)[C@@H](C)[C@](C)(c2cc(OC)c(C)c(OC)c2COc2ccccc2)O1 | – | inconclusive: 3.16 µM [activator, partial curve]
20 | CNC(=O)CSc1cnc2ccccc2n1 | – | inconclusive: 5.62 µM [activator, single point]
21 | Cn1cc(CN2CCN(Cc3cccnc3)CC2)c(-c2ccc3c(c2)OCCO3)n1 | inactive: 8.54% [at 10 µM] | –
22 | Cc1cc(NC(c2cccnc2)c2ccc3cccnc3c2O)no1 (stereo not given) | inactive: -85.7% | –
23 | Fc1ccc(CSc2ccc(-c3ccco3)nn2)cc1 | – | inconclusive: 1.12 µM [activator, single point]
24 | Cc1ccccc1-c1nc(CN2CCCC(C(=O)NCCCN3CCOCC3)C2)c(C)o1 (stereo not given) | inactive: -19.1% | –

Row | Structure (SMILES) | cytoprotection (ATP increase) | Potency
25 | Cc1cc(C)c2c(c1)N[C@H](c1cccs1)[C@@H]1CCO[C@H]21 | inactive: -15.4% [at 10 µM] | –
26 | O=C(NCc1ccc2c(c1)OCO2)C1CC(c2ccccc2O)=NO1 (stereo not given) | inactive: 9.35% | –
27 | Cc1ccccc1OCC(=O)N/N=C/C=C/c1ccccc1 | – | inconclusive: 0.891 µM [activator, full curve, poor fit]
28 | Cc1ccc2cc3c(N)c(C(=O)N4CCOCC4)sc3nc2c1 | inactive: -91.8% [at 10 µM] | –
29 | O=Nc1ccc(Nc2ccccc2)cc1 | – | inconclusive: 7.94 µM [activator, full curve]
30 | O=C1CCCC=C1[C@@H](O)C1CCCCC1 | – | inconclusive: 0.0501 µM [activator, full curve]
31 | CN(CC(=O)Nc1ccc(N2CCOCC2)cc1)Cc1c(O)ccc2ccccc12 | – | inconclusive: 0.316 µM [activator, partial curve, poor fit]
32 | C/C(Cn1nnc([N+](=O)[O-])n1)=N\NC(=O)c1cccc(Cl)c1 | – | inconclusive: 1.41 µM [activator, partial curve]
33 | Cc1ccc(S(=O)(=O)NC(C)(C)CSc2nncn2N)cc1 | – | inconclusive: 6.31 µM [activator, single point]
34 | N=C1CCCN1CC(=O)c1ccc(Cl)cc1 | – | inconclusive: 1 µM [activator, single point]
35 | COc1ccc(N(Cc2ccccc2)S(=O)(=O)c2cccc(C(=O)O)c2)cc1 | – | inconclusive: 3.55 µM [activator, partial curve, poor fit]
36 | O=C(O)CSc1c2c(nc3cc(C(=O)NCCN4CCOCC4)ccc13)CCC2 | inactive: -6.02% [at 10 µM] | –
37 | CC1CCN(c2nc3ccccc3nc2C(C#N)C(=O)NC2CCCCC2)CC1 (stereo not given) | – | inconclusive: 2.82 µM [activator, single point]
38 | N#CC1=C(N)Oc2n[nH]c(-c3ccc(F)cc3)c2C1c1ccncc1 (stereo not given) | – | inconclusive: 1 µM [activator, single point]
39 | Cc1ccc(C(N)=O)cc1S(=O)(=O)Nc1cccc(C)c1C | – | inconclusive: 0.199 µM [activator, full curve, poor fit]
40 | Cc1cc(N(CN2CCCC2=O)C(=O)c2ccc(OC(C)C)cc2)no1 | – | inconclusive: 5.62 µM [activator, single point]
41 | CC(C)NNC(=O)c1ccncc1 | – | inconclusive: 0.251 µM [activator, full curve]
42 | CCCCNC(=O)OCC(CC)NC(=O)OCC(C)C (stereo not given) | – | inconclusive: 35.5 µM [activator, single point]
43 | CCCCCCCCCCCCC/C=C/[C@@H](O)[C@H](COP(=O)([O-])OCC[N+](C)(C)C)NC(=O)CCCCCCCCCCCCCCCCC | – | inconclusive: 2.51 µM [activator, full curve]
44 | CC(=O)N=c1sc(S(N)(=O)=O)nn1C | – | inconclusive: 0.447 µM [activator, partial curve]
45 | Cc1cc2n(n1)C(c1ccc3c(c1)OCO3)Nc1c(C)cccc1-2 (stereo not given) | inactive: -22.7% [at 10 µM] | –
46 | COc1ccc(OC)c(S(=O)(=O)n2ccnc2)c1 | – | inconclusive: 3.98 µM [activator, partial curve]
47 | CCOC(=O)/C=C/S(=O)(=O)c1ccc(NC(C)=O)cc1 | inactive: -162% | –
48 | CCC1CCCCN1S(=O)(=O)c1ccc(NC(=O)CSc2ncccc2C(=O)O)cc1 (stereo not given) | inactive: -12.6% | –

Row | Structure (SMILES) | cytoprotection (ATP increase) | Potency
49 | CC(=O)c1c(C)[nH]c(C(=O)OCC(=O)Nc2ccc([N+](=O)[O-])cc2Cl)c1C | – | inconclusive: 0.794 µM [activator, partial curve]
50 | CC(Oc1ccc(Cl)cc1Cl)C(=O)NC1CCSC1=O (stereo not given) | inactive: 15.8% [at 0.074 µM] | –
51 | N#Cc1cccc(-c2nccc(-n3ccnc3)n2)c1 | – | inconclusive: 5.62 µM [activator, single point]
52 | CCOc1cc(C(=O)Nc2ccc(S(=O)(=O)NC3=NCCCCC3)cc2)cc(OCC)c1OCC | inactive: -49.3% | –
53 | CCCCCn1c(=N)n(CC(O)COc2ccccc2OC)c2ccccc21 (stereo not given) | inactive: -11.5% [at 10 µM] and inactive: -12.2% [at 10 µM] | –
54 | COc1cccc(-c2cc(=O)c3cc(NC(=O)c4cccnc4)ccc3[nH]2)c1 | – | inconclusive: 10 µM [activator, partial curve]
55 | N#CC1=C(S)N(c2ccccc2)C2(CCCCC2)NC1=O | – | inconclusive: 0.126 µM [activator, full curve]
56 | NC(N)=NCCCCN=C(N)N | – | inactive
57 | CO/N=C(\c1nonc1N)N1CCN(c2ccc([N+](=O)[O-])cc2Cl)CC1 | inactive: -18.2% | –
58 | O=C(COc1ccc(Cl)cc1Cl)NC(=S)Nc1ccc(CN2CCOCC2)cc1 | inactive: 10.7% [at 10 µM] | –
59 | COc1ccccc1N1CCN(C(c2cccs2)C(C)NC(=O)c2ccncc2)CC1 (stereo not given) | inactive: -3.37% [at 10 µM] | –
60 | Oc1c(Cl)cc(Cl)cc1C=Nc1ccc(Br)cc1 | inactive: -27.6% | –
61 | Cc1cc(=O)oc2cc(OCC(=O)NCC3CCCO3)ccc12 (stereo not given) | – | inconclusive: 0.0158 µM [activator, full curve, poor fit]
62 | CCCOc1ccc(CCc2n[nH]c(=S)n2-c2ccccc2)cc1 | – | inconclusive: 31.6 µM [activator, single point]
63 | CCN(CC)C(=O)c1ccc(COc2ccccc2Cl)cc1 | inactive: -1.14% | –
64 | CCCCOc1ccccc1NC(=O)c1scc2c1OCCO2 | inactive: -49% | –
65 | COc1ccc(-c2nn(-c3ccccc3)cc2/C=N/N2C(=O)CSC2=S)cc1 | – | inconclusive: 14.1 µM [activator, single point]
66 | FC(F)C(F)(F)C(F)(F)C(F)(F)c1cc(-c2ccccc2)n[nH]1 | inactive: -8.52% | –
67 | CCN(Cc1ccccc1)S(=O)(=O)c1ccc(C(=O)N2CCN(c3nc4ccccc4s3)CC2)cc1 | – | inconclusive: 0.224 µM [activator, full curve, poor fit]
68 | CCN(c1ccc2c(c1)OCO2)S(=O)(=O)c1cc(Br)cc2c1N(C(C)=O)CC2 | – | inconclusive: 0.562 µM [activator, full curve, poor fit]
69 | COCCn1c(C)cc(C(=O)COc2cccnc2[N+](=O)[O-])c1C | inactive: 11.3% | –
70 | CC1CCN(C2=C(NS(=O)(=O)c3ccccc3)C(=O)c3ccccc3C2=O)CC1 | inactive: 6.99% [at 10 µM] | –
